Assay results published in paper PMC10927582.
Results are given in words; binding and its absence hold for the method and conditions named. In cells and extracts the contact can be indirect. Some binding calls cover weakened binding; strength is not graded here. For some assays here: Tags and fused reporters may be left off the sequences shown.

Sequences of proteins named here, by UniProt entry; tags and fusion partners are left off. A change or cut given only in a name is not applied to a line headed by its entry. A line that says so, or that is headed by a name, gives the form on record, which may keep a tag or linker. Residues count along the entry.
PINK1-HA R543D (Q9BXM7, form named): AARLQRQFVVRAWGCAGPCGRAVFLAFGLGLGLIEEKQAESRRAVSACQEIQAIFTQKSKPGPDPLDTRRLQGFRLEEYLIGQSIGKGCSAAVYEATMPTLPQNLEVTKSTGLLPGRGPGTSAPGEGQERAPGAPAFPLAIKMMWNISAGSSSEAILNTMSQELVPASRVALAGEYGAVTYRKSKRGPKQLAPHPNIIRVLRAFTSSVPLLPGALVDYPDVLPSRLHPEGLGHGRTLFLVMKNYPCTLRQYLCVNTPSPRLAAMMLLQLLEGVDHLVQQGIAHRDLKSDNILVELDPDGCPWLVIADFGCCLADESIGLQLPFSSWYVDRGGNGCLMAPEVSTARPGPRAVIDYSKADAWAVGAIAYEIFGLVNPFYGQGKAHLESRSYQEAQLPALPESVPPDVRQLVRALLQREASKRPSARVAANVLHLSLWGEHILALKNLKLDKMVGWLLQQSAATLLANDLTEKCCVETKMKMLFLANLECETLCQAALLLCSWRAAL
UniProt Q3ZCQ8, residues 45-353: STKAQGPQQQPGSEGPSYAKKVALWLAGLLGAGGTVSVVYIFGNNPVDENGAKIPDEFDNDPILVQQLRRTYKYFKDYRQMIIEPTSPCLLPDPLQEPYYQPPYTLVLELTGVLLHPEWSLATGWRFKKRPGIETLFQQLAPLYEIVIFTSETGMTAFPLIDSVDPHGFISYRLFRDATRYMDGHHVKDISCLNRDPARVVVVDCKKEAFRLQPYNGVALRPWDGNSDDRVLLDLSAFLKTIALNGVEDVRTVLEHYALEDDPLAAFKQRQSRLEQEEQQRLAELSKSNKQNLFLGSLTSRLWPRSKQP
UniProt Q15388: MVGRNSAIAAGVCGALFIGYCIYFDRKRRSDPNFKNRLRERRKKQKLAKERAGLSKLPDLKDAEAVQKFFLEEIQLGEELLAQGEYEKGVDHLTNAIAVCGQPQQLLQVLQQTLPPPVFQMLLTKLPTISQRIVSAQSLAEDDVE

T1: Tim23-FLAG (UniProt O14925)
T1 sequence: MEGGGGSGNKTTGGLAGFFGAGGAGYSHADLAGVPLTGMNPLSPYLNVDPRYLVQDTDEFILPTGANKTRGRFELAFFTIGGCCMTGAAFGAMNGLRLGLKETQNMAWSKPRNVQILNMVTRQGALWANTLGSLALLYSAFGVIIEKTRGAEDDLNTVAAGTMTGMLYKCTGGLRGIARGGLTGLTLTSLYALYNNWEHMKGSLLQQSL


Assays:
PINK1-HA R543D (human) = PINK1-HA R543D (human) (UniProt Q9BXM7); assay: co-IP; HA immunocapture (anti-HA magnetic beads) from isolated mitochondria of U2OS PINK1 KO cells transfected with PINK1-HA (WT or mutants); 20 µM CCCP 4 h or ΔOTC for 36 h; elution with HA peptide, 0.2% digitonin; immunoblot
Tim23-FLAG = target: T1, Tim23-FLAG; assay: co-IP; FLAG immunocapture from isolated mitochondria of HEK293T cells transfected with Tim50-FLAG or Tim23-FLAG; 20 µM CCCP 4 h; elution with FLAG peptide; immunoblot
Tim50-FLAG [1] = target: Tim50-FLAG (UniProt Q3ZCQ8); assay: co-IP; Tim50-FLAG immunopurification in the presence of the Tom20-binding deficient PINK1 mutants (SI Appendix, Fig. S9)
Tim50-FLAG [2] = target: Tim50-FLAG (UniProt Q3ZCQ8); assay: co-IP; FLAG immunocapture from isolated mitochondria of WT U2OS cells transfected with Tom22-FLAG or Tim50-FLAG; 20 µM CCCP or DMSO 4 h; elution with FLAG peptides; immunoblot
Tim50-FLAG [3] = target: Tim50-FLAG (UniProt Q3ZCQ8); assay: co-IP; FLAG immunocapture from isolated mitochondria of HEK293T cells transfected with Tim50-FLAG or Tim23-FLAG; 20 µM CCCP 4 h; elution with FLAG peptide; immunoblot

| Molecule | binding (PINK1-HA R543D (human)) | binding (Tim23-FLAG) | binding (Tim50-FLAG [1]) | binding (Tim50-FLAG [2]) | binding (Tim50-FLAG [3]) |
| --- | --- | --- | --- | --- | --- |
| Tim23 subunit of the TIM23 complex, endogenous (protein, UniProt O14925 1-209) MEGGGGSGNKTTGGLAGFFGAGGAGYSHADLAGVPLTGMNPLSPYLNVDPRYLVQDTDEFILPTGANKTRGRFELAFFTIGGCCMTGAAFGAMNGLRLGLKETQNMAWSKPRNVQILNMVTRQGALWANTLGSLALLYSAFGVIIEKTRGAEDDLNTVAAGTMTGMLYKCTGGLRGIARGGLTGLTLTSLYALYNNWEHMKGSLLQQSL |  |  | binds | binds | binds |
| Tim22 subunit of the TIM22 translocase, endogenous (protein, UniProt Q9Y584 1-194) MAAAAPNAGGSAPETAGSAEAPLQYSLLLQYLVGDKRQPRLLEPGSLGGIPSPAKSEEQKMIEKAMESCAFKAALACVGGFVLGGAFGVFTAGIDTNVGFDPKDPYRTPTAKEVLKDMGQRGMSYAKNFAIVGAMFSCTECLIESYRGTSDWKNSVISGCITGGAIGFRAGLKAGAIGCGGFAAFSAAIDYYLR |  | no binding |  | no binding | no binding |

The remaining lines, values ahead:

| binding (PINK1-HA R543D (human)) | binding (Tim23-FLAG) | binding (Tim50-FLAG [1]) | binding (Tim50-FLAG [2]) | binding (Tim50-FLAG [3]) | Molecule |
| --- | --- | --- | --- | --- | --- |
| binds |  |  |  |  | Tom20 subunit of the TOM complex, endogenous (from UniProt Q15388 1-145) |
|  | binds |  |  |  | Tim50 subunit of the TIM23 complex, endogenous (from UniProt Q3ZCQ8 45-353) |
